Experimental data as given in article PMC9829575.
These are yes or no findings as the source states them, for the method shown. Binding seen in cells or lysates may run through a third protein. Binding can be weak; no strength is given.

Target: recombinant ubiquitin-associated domain (UBA) of p62/sequestosome-1 on agarose beads (UniProt Q13501)
Assay: pull-down; UBA-p62 agarose beads (Enzo) or glutathione-agarose beads incubated with RIPA-soluble lysates of the isolated sciatic nerve myelin fraction for 24 h at 4 °C with rotation; beads washed three times with RIPA buffer, then SDS-PAGE; only the target purified

myelin basic protein (from UniProt P04370-5)
binding: binds
